The exact form of at least one protein or probe is not confirmed. At least one verdict rests on a figure or table, not on a statement of the authors.

Sequences of proteins named here, by UniProt entry; tags and fusion partners are left off.
UniProt Q06609, whole entry G151D: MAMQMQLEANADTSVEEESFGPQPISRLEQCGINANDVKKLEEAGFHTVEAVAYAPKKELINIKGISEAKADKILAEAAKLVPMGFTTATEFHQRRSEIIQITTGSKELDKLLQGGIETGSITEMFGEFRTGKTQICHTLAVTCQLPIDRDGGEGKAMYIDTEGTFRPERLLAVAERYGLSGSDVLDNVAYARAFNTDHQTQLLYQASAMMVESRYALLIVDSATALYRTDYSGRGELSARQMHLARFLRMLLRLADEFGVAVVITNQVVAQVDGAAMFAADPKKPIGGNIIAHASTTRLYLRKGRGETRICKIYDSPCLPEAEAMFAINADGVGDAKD
UniProt Q06609, whole entry: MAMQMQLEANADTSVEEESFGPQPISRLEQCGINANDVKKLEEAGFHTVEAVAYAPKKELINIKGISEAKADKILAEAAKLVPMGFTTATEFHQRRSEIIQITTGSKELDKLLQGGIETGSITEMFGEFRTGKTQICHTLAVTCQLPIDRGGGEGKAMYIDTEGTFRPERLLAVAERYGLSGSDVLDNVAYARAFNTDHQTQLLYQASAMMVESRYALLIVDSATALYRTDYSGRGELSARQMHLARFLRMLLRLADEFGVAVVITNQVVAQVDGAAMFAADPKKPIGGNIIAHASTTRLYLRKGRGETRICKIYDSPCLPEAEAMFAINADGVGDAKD

The text below walks through data of PMC4981402.

One data set has as its target RAD51 G151D (human) (UniProt Q06609). Briefly: EMSA. As to conditions: 2 mM ATP, 1 mM Mg2+, 2 mM Ca2+, complexes migrate faster than WT, EMSA: 25 mM TrisOAc pH 7.5, 1 mM MgCl2, 2 mM CaCl2, 0.1 ug/uL BSA, 1 mM DTT, 0.2 nM DNA, 37 C 30 min, gel in TAE at 4 C, recombinant protein.
The target in a further data set is RAD51 WT (human) (UniProt Q06609). As to the kind of experiment: EMSA. The settings on record: 2 mM ATP, 1 mM Mg2+, 2 mM Ca2+, EMSA: 25 mM TrisOAc pH 7.5, 1 mM MgCl2, 2 mM CaCl2, 0.1 ug/uL BSA, 1 mM DTT, 0.2 nM DNA, 37 C 30 min, gel in TAE at 4 C, recombinant protein.
Setting [1] is: label: 5'-32P, single-stranded DNA.

Take “CTGCTTTATCAAGATAATTTTTCGACTCATCAGAAATATCCGTTTCCTATATTTATTCCTATTATGTTTTATTCATTTACTTATTCTTTATGTTCATTTTTTATATCCTTTACTTTATTTTCTCTGTTTATTCATTTACTTATTTTGTATTATCCTTATCTTATTTA / CGGATATTTCTGATGAGTCGAAAAATTATCTTGATAAAGCAG [3' tail DNA (RJ-167-mer/RJ-PHIX-42-1)]”: the binding result in the data set with RAD51 G151D (human) (label: 5'-32P on RJ-167-mer) and in the data set with RAD51 WT (human) (label: 5'-32P on RJ-167-mer) was “binds” throughout.
On to “CTGCTTTATCAAGATAATTTTTCGACTCATCAGAAATATCCGTTTCCTATATTTATTCCTATTATGTTTTATTCATTTACTTATTCTTTATGTTCATTTTTTATATCCTTTACTTTATTTTCTCTGTTTATTCATTTACTTATTTTGTATTATCCTTATCTTATTTA [ssDNA RJ-167-mer]”, for which the binding result with RAD51 G151D (human) (setting [1]) and with RAD51 WT (human) (setting [1]) was “binds” throughout.
In the case of “TAATACAAAATAAGTAAATGAATAAACAGAGAAAATAAAG (double strand) [dsDNA RJ-Oligo1/RJ-Oligo2]”, the binding result with RAD51 G151D (human) (label: 5'-32P on RJ-Oligo1) and in the data set with RAD51 WT (human) (label: 5'-32P on RJ-Oligo1) was “binds” each time.
